Laboratory results reported in the supplement of paper PMC12067093, “Discovery and optimisation of a covalent ligand for TRIM25 and its application to targeted protein ubiquitination” (Chemical Science, 2025).
Some of the results follow.

Compound: Cc1cc(ccc1-c1ccccc1)C(=O)N1CCCN(CC1)C(=O)CCl [compound 10]
Experiment: probe-labelled cysteine peptide fold change vs DMSO (competition) (log2 fold change); higher = less target engagement (more negative = stronger competition)
Details: THP-1, incubation time: 4 h
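Also: competitive profiling in live THP-1 cells: cysteine peptides tagged with an iodoacetamide desthiobiotin (IA-DTB) probe, intensity after compound treatment relative to DMSO-treated cells.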

Target | probe-labelled cysteine peptide fold change (10 µM) | probe-labelled cysteine peptide fold change (50 µM)
MINK1_Q8N4C8_269_KFIDFIDTCLIK (UniProt Q8N4C8) | -0.0555 | -0.0905
MORC3_Q14149_307_ITFGFNCR (UniProt Q14149) | -0.379 | -0.0989
MRC2_Q9UBG0_532_KGWTWHSPSCYWLGEDQVTYSEAR (UniProt Q9UBG0) | -0.264 | -0.311
MRGBP_Q9NV56_59_HFHMICIR (UniProt Q9NV56) | 0.0567 | -0.262
MORC3_Q14149_797+800_AECSQCSNNESK (UniProt Q14149) | 0.154 | -0.173
MRE11_P49959_336_VTQAIQSFCLEK (UniProt P49959) | 0.123 | 0.0281
MITD1_Q8WV92_226+233_FSLGYCDFDLRPCHETTVDIFHK (UniProt Q8WV92) | -0.136 | -0.305
MORC3_Q14149_413+416_RPDQTWVQCDACLK (UniProt Q14149) | 0.0843 | -0.211
MOB4_Q9Y3A3_92_LQSECHPDTCTQMTATEQWIFLCAAHK (UniProt Q9Y3A3) | 0.0414 | 0.244
MIOS_Q9NXC5_321_SVQPCDNYIASFAWHPTSQNR (UniProt Q9NXC5) | 0.112 | -0.0374
MKLN1_Q9UL63_128_HKIDEQMFPCR (UniProt Q9UL63) | 0.0221 | -0.00626
MRPL3_P09001_78_LCPLKDEPWPIHPWEPGSFR (UniProt P09001) | -0.483 | -0.0486
MRC2_Q9UBG0_481_DSLEDCVTIWGPEGR (UniProt Q9UBG0) | 0.321 | -0.0784
MRC2_Q9UBG0_201_YDNQWFHGCTSTGR (UniProt Q9UBG0) | -2.14 | -2.04
MIOS_Q9NXC5_377_HLYECTEEENDNSLEK (UniProt Q9NXC5) | -0.029 | -0.247
MIF_P14174_60_ASVPDGFLSELTQQLAQATGKPPQYIAVHVVPDQLMAFGGSSEPCALCSLHSIGK (UniProt P14174) | 0.1 | 0.243
MROH1_Q8NDA8_888_ADVIHGCLHSIMALLPEPKEEDGGCQK (UniProt Q8NDA8) | -0.172 | -0.167
MOCS3_O95396_179_RYDVVADCSDNVPTR (UniProt O95396) | -0.0414 | 0.0957
MKLN1_Q9UL63_393_LVFDHQMCMDSEK (UniProt Q9UL63) | -0.00049 | 0.187
MORC3_Q14149_62_TVINDHICLTFTDNGNGMTSDK (UniProt Q14149) | 0.141 | 0.167
MRPL21_Q7Z2W9_124_VTSEDLILIGNELDLACGER (UniProt Q7Z2W9) | -0.102 | 0.206
MPHOSPH9_Q99550_647_CGQLDSALHEATSR (UniProt Q99550) | 0.116 | 0.175
MICAL1_Q8TDZ2_87_CLVVGAGPCGLR (UniProt Q8TDZ2) | 0.0835 | 0.45
MND1_Q9BWT6_147_DCDPQVVEEIR (UniProt Q9BWT6) | -0.122 | -0.0556

Some of the entries so far, in CSV form.
Target,probe-labelled cysteine peptide fold change (10 µM),probe-labelled cysteine peptide fold change (50 µM)
MRC2_Q9UBG0_481_DSLEDCVTIWGPEGR (UniProt Q9UBG0),0.321,-0.0784
MRC2_Q9UBG0_201_YDNQWFHGCTSTGR (UniProt Q9UBG0),-2.14,-2.04

Continuation:

Target | probe-labelled cysteine peptide fold change (10 µM) | probe-labelled cysteine peptide fold change (50 µM)
MINK1_Q8N4C8_129_EDCIAYICR (UniProt Q8N4C8) | -0.0748 | 0.0162
MRPL53_Q96EL3_21_VQFCPFEK (UniProt Q96EL3) | 0.0106 | -0.103
MRPL37_Q9BZE1_203_ICVQNSTFSATWNR (UniProt Q9BZE1) | -0.0553 | -0.0108
MICAL2_O94851_703_SLGSNQECGSSK (UniProt O94851) | -0.0982 | -0.269
MRC2_Q9UBG0_521_AGQLSQGAAEEDHGCRK (UniProt Q9UBG0) | -0.292 | -0.516
MNDA_P41218_274_KVITISDYSECK (UniProt P41218) | -0.16 | 0.084
MRPL36_Q9P0J6_92_WYVYCK (UniProt Q9P0J6) | -0.141 | -0.0111
MIS18BP1_Q6P0N0_918_SPEECQR (UniProt Q6P0N0) | 0.443 | 0.316
MKRN2_Q9H000_262_FGILSNCNHTYCLSCIR (UniProt Q9H000) | 0.0843 | 0.0333
MRPL44_Q9H9J2_96_TAFVNSCYIK (UniProt Q9H9J2) | -0.0364 | -0.21
MITD1_Q8WV92_233_FSLGYCDFDLRPCHETTVDIFHKK (UniProt Q8WV92) | -0.0168 | -0.319
MRPL37_Q9BZE1_203_RICVQNSTFSATWNR (UniProt Q9BZE1) | -0.258 | -0.177
MPI_P34949_11_VFPLSCAVQQYAWGK (UniProt P34949) | -0.118 | -0.00117
MPP5_Q8N3R9_366_AHFDYDPSDDPYVPCR (UniProt Q8N3R9) | 0.0892 | -0.463
MMS19_Q96T76_760_CFAGLLNK (UniProt Q96T76) | 0.0266 | -0.343
MRPL44_Q9H9J2_167_NLVDFLTGEEVVCHVAR (UniProt Q9H9J2) | 0.167 | 0.174
MLST8_Q9BVC4_107_WMYTGGEDCTAR (UniProt Q9BVC4) | -0.129 | -0.295
MRPL46_Q9H2W6_210_FLGNAPCGHYTFK (UniProt Q9H2W6) | 0.00398 | -0.095
MMADHC_Q9H3L0_261+262_HLGFSVDDLGCCK (UniProt Q9H3L0) | -0.412 | -1.16
MIPEP_Q99797_142_EAAEEACR (UniProt Q99797) | -0.0572 | 0.21
MRC2_Q9UBG0_521_AGQLSQGAAEEDHGCR (UniProt Q9UBG0) | -0.386 | -0.728
MRPS10_P82664_142_CLELEHLTGSTADVYLEYIQR (UniProt P82664) | 0.276 | 0.371
MKI67_P46013_3014_CMPAPEEIVEELPASK (UniProt P46013) | 0.0872 | -0.138
